Experimental findings from paper PMC12334247 are described below.

Assay [1] has as its target T1, KIN10, endogenous in Arabidopsis plants (Arabidopsis thaliana (endogenous in Arabidopsis plantlets)) (UniProt Q38997).
T1 sequence: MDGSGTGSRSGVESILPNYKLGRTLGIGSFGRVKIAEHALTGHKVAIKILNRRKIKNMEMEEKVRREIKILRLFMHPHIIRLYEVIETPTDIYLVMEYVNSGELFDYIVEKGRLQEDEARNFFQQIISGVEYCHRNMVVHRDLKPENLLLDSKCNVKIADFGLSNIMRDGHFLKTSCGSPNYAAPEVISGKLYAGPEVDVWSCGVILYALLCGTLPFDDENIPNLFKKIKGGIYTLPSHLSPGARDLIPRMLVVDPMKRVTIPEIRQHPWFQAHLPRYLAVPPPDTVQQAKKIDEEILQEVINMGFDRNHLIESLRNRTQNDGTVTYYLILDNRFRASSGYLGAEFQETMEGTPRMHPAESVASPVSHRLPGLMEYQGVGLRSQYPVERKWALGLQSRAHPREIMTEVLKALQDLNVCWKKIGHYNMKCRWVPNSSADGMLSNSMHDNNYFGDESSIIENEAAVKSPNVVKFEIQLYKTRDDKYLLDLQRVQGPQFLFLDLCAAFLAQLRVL
The assay is described as follows: co-IP; extracts of shoots of 9-day-old pAIP10::AIP10-YFP plants; results say anti-KIN10 antibody, methods say GFP-Trap A beads, overnight at 4°C, 150 mM NaCl; blot with anti-KIN10 and anti-GFP.

Assay [2] concerns the target T2, ABAP1, endogenous in Arabidopsis plants (Arabidopsis thaliana (endogenous in promAIP10::AIP10-YFP plants)) (UniProt B7U179).
T2 sequence: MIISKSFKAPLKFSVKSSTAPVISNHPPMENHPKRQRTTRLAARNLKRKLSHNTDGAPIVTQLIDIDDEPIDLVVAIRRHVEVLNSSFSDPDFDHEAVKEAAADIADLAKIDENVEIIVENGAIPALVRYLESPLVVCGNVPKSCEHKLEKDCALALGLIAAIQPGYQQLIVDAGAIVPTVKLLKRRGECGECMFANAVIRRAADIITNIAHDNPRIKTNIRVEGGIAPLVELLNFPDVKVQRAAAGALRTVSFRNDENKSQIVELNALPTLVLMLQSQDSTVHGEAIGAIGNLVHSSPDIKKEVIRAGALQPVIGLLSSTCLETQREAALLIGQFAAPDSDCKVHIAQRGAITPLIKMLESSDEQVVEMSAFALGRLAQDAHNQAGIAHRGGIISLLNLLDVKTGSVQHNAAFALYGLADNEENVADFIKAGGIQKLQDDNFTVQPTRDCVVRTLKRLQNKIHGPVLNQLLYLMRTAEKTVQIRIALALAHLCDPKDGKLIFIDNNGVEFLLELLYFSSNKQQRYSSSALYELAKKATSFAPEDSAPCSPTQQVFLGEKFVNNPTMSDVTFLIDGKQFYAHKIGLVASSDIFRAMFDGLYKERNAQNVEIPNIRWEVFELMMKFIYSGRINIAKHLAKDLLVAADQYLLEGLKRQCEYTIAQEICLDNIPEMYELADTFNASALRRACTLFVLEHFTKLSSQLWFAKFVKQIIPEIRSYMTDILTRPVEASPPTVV
The assay is described as follows: co-IP; anti-ABAP1 antibody with protein A Sepharose; 300 μg protein extract of shoot and root (9 DAG) and inflorescence of pAIP10::AIP10-YFP plants; NaCl reduced to 200 mM; blot with anti-ABAP1 and anti-GFP.

The target in assay [3] is GST::AIP10 (recombinant AIP10-GST fusion) (Arabidopsis thaliana). The assay is described as follows: pull-down; semi-in vivo: full-length GST::AIP10 as bait, protein extracts of Arabidopsis 9-day-old plantlets; blot with anti-KIN10; only the target purified.
In assay [4] the target is GST alone (glutathione S-transferase). The description is as above.
Assay [5] has as its target ABAP1 interacting protein 10 (AIP10), yeast two-hybrid fusion (Arabidopsis thaliana). Put plainly: two-hybrid; yeast strain PJ694-a; fusions to AD (pDEST22) and BD (pDEST32); -Leu/-Trp selects co-transformation, -Leu/-Trp/-His/-Ade selects for strong interaction.
Assay [6] deals with GST::AIP10 (recombinant AIP10-GST fusion) (Arabidopsis thaliana). Put plainly: pull-down; semi-in vivo: bacterially expressed GST::AIP10 as bait, ABAP1-GFP protein extract; Western blot; only the target purified.
The target in assay [7] is GST alone (glutathione S-transferase). The assay is described as above.

Results are given in words; binding and its absence hold for the method and conditions named. For some of these results: Binding can be weak; no strength is given. For some of these results: Sequences can lack the tags named with a protein. For some of these results: In cells and extracts the contact can be indirect.

“AIP10-YFP C-terminal fusion protein (promAIP10::AIP10-YFP) (Arabidopsis thaliana)”: the binding result in assay [1] and in assay [2] was “binds” throughout.

B1: KIN10, endogenous in Arabidopsis plants (enzyme, UniProt Q38997 1-512)
chain: T1 sequence
On to B1, for which the binding entry in assay [3] is on record as “binds”; in assay [4], “no binding”.

B2: Armadillo BTB Arabidopsis protein 1 (ABAP1), yeast two-hybrid fusion (protein, UniProt B7U179 1-737)
chain: T2 sequence
B2: the binding result in assay [5] was “binds”.

B3: ABAP1-GFP (protein, UniProt B7U179 1-737)
chain: T2 sequence
For B3, the binding result in assay [6] is reported as “binds”; in assay [7], “no binding”.
